Assay results: paper PMC11358092, “Caspofungin enhances the potency of rifampin against Gram-negative bacteria” (Frontiers in Microbiology, 2024)

Tested on: E. coli MG1655
Test: High-throughput screening of FDA-approved drug library for antibiotic adjuvants (growth inhibition, OD600)
Type: cell-based, Escherichia coli

Row | Structure (SMILES) | Growth inhibition, Compound
1 | CCCCCCCCCCCCCCCC[n+]1ccccc1 [Cetylpyridinium Chloride] | 78%
2 | CCCCCCCCCCCCCCCC[n+]1ccccc1 [Cetylpyridinium chloride monohydrate] | 87%
